Chains of the proteins cited; added tags and fusions are not shown. Lines headed by an entry give the natural chain unless they say otherwise; changes in a name come on top.
UniProt Q9EPK8: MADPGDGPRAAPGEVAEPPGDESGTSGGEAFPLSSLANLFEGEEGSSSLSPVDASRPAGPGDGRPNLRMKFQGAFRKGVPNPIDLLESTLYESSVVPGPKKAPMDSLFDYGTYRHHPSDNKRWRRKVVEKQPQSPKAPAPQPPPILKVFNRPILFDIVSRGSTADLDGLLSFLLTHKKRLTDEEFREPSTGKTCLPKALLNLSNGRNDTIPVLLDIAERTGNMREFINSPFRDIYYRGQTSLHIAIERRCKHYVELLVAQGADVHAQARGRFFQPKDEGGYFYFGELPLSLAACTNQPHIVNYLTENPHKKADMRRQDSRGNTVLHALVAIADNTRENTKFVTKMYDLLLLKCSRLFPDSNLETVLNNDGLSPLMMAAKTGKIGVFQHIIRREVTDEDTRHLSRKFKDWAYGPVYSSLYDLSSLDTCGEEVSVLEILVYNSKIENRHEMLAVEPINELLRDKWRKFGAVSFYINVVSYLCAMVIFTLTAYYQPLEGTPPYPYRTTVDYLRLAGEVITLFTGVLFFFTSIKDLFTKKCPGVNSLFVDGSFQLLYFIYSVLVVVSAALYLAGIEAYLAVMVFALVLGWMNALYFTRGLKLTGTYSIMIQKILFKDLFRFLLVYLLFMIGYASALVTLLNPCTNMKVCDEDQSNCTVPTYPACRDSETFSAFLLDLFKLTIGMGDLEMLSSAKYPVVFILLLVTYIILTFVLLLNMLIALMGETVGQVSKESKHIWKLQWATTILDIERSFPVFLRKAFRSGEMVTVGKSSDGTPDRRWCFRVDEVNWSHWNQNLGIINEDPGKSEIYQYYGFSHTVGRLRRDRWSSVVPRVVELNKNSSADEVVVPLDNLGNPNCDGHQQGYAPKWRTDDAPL
UniProt P70605: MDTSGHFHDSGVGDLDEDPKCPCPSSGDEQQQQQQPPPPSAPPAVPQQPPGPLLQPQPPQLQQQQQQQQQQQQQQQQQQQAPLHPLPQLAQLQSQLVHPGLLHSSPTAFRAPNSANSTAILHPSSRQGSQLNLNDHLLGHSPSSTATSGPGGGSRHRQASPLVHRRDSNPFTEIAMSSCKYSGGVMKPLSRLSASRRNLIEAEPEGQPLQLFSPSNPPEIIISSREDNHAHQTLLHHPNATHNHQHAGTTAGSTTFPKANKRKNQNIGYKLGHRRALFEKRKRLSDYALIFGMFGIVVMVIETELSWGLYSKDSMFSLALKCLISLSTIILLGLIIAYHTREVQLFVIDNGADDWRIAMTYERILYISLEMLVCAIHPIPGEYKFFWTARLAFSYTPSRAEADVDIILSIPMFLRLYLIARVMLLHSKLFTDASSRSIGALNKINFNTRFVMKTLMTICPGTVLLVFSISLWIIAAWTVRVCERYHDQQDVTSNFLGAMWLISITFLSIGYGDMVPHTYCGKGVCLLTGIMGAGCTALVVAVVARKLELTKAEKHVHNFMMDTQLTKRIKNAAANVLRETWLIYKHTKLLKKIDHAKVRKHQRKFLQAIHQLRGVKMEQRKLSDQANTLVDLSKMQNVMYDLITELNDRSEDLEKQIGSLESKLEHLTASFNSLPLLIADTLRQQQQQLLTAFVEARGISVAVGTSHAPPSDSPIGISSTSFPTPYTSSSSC

According to PMC5666316:

Tests used:
Test in all cases: FRET or BRET; acceptor photobleaching FRET in HEK cells co-expressing CFP-tagged TRPV4 and YFP-tagged KCa2.3 (wild type or deletions); negative control CFP and YFP as separate molecules, positive control YFP-CFP dimer
[1] = target: CFP-tagged TRPV4 (wild type) (UniProt Q9EPK8)
[2] = target: CFP-tagged TRPV4 with the AR1 region deleted (UniProt Q9EPK8)
[3] = target: CFP-tagged TRPV4 with the AR3 region deleted (UniProt Q9EPK8)
[4] = target: CFP-tagged TRPV4 with the AR4 region deleted (UniProt Q9EPK8)
[5] = target: CFP-tagged TRPV4 with the AR5 region deleted (UniProt Q9EPK8)
[6] = target: CFP-tagged TRPV4 with the AR6 region deleted (UniProt Q9EPK8)
[7] = target: CFP-tagged TRPV4 with the CaMBD region deleted (UniProt Q9EPK8)

In the case of “YFP-tagged KCa2.3 with the Loop region deleted (from UniProt P70605)”, the binding [1] is reported as “binds”.
With “YFP-tagged KCa2.3 with the CaMBD region deleted (from UniProt P70605)” the binding [1] was “binds”.
For “YFP-tagged KCa2.3 with the α2 region deleted (from UniProt P70605)”, the binding [1] was “binds”.
In the case of “YFP-tagged KCa2.3 with the α1 region deleted (from UniProt P70605)”, the binding [1] is reported as “binds”.
In the case of “YFP-tagged KCa2.3 (wild type) (from UniProt P70605 1-732)”, the binding [2] is reported as “binds”, the binding [3] is reported as “binds” and the binding [4] is reported as “binds”. The binding [5] was “binds”, the binding [6] was “binds” and the binding [7] was “binds”.

These are yes or no findings as the source states them, for the method shown. In cells and extracts the contact can be indirect. Binding can be weak; no strength is given.
